Laboratory results taken from publication doi:10.1101/2022.10.10.511681.
These are yes or no findings as the source states them, for the method shown. A result given as binding can be weak or reduced; the word gives no strength. Tags and fused reporters may be left off the sequences shown.

Molecular target: T1, full length PER2 (LTE cell-free expressed, eGFP or mCherry tagged) (human) (UniProt O15055)
T1 sequence: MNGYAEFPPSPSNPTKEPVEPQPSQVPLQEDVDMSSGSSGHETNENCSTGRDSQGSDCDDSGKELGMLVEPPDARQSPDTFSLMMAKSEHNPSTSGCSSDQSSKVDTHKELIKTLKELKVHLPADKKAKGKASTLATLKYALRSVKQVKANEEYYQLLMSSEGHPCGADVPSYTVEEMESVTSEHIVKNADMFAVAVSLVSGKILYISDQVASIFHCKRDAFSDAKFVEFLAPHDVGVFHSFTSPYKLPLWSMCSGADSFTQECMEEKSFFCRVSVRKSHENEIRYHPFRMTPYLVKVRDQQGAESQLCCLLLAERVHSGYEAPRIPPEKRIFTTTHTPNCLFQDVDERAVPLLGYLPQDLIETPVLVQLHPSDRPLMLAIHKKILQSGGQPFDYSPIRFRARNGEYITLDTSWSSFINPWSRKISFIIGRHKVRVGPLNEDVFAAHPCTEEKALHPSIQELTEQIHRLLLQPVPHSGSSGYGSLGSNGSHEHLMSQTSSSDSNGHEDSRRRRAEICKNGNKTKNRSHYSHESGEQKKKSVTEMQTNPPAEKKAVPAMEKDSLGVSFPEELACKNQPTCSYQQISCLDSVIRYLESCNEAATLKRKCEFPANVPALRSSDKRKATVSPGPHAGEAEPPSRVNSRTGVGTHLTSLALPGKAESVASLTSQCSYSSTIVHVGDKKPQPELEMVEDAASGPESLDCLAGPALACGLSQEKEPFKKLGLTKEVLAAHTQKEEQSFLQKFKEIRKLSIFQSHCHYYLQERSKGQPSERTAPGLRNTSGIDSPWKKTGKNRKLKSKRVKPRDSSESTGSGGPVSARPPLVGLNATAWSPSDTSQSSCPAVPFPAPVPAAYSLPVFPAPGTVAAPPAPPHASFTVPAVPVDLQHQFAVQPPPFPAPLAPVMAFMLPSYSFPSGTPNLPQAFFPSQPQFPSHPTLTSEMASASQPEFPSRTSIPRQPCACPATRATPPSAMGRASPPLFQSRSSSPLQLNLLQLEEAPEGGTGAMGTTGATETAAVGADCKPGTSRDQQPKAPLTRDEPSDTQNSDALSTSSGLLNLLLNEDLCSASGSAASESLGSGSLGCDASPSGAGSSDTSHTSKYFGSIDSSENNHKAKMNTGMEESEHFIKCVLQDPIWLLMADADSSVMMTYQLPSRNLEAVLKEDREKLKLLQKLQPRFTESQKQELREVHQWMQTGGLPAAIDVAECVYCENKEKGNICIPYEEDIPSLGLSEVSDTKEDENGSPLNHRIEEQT
Experiment: AlphaScreen or HTRF

binding | Substance
binds | CAVIN1 HR1 domain, LTE cell-free expressed (human) (domain or fragment)
binds | CAVIN3 HR1 domain, LTE cell-free expressed (human) (domain or fragment)
